At least one read-out could not be matched to a standard name with certainty.
Biological target: T1, Ornithine decarboxylase (ODC) (Rattus norvegicus, UniProt P09057)
T1 construct: is prepared from the livers of rats which have been injected with thioacetamide; from tissue; host or cells: rat liver (thioacetamide-induced)
T1 sequence (P09057 1-461): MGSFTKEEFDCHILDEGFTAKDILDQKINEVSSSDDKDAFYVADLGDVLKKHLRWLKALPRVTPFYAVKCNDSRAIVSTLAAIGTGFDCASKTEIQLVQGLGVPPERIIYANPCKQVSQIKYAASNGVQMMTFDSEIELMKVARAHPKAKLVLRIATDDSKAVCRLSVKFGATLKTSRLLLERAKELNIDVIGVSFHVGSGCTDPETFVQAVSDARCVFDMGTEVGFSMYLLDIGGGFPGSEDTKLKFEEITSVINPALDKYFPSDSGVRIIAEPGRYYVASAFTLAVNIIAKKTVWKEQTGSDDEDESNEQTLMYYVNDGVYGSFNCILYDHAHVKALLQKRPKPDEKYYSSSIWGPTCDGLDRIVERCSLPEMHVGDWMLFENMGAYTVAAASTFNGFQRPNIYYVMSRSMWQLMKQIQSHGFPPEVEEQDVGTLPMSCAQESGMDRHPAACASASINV
Assay: In vitro time-dependent inhibition of ornithine decarboxylase (14CO2 release from DL-[1-14C]ornithine; Kitz and Wilson analysis)
Assay type: biochemical, rats
Conditions: half-life at 10 uM inhibitor; rat liver ODC, 37°
Protocol: The stock solution of ODC is composed of proteins (16 mg/mL), sodium phosphate buffer (30 mM, pH 7.1), dithiothreitol (5 mM) and pyridoxal phosphate (0.1 mM). The specific activity of this stock solution is 0.12 nmol of CO2/min per mg of protein. For a typical experiment 320 µl of this stock solution is mixed at time 0 with 80 µl of a solution of the inhibitor in water and incubated at 37°. At different times 50 pl aliquots are transferred into a 1 mL assay medium containing sodium phosphate (30 mM, pH 7.1), dithiothreitol (5 mM), pyridoxal phosphate (0.1 mM), L-ornithine (0.081 pmol), and DL-[1-^14C] ornithine (0.043 pmol, 58 Ci/mol, Amersham) in a closed vessel in which a filter paper moistered with 50 µl hyamine hydroxide (1 M) is fitted. The reaction is allowed to proceed for 60 min at 37°C and then terminated by addition of 0.5 ml of 40% trichloroacetic acid. After an additional 30 min, the CO2 absorbed on the filter paper is counted in a standard scintillation cocktail.

SMILES | ODC t1/2 [min]
NCC(=O)CC(N)(CF)C(=O)O (centres unmarked) [A, 2-fluoromethyl-2,5-diamino-4-oxo-pentanoic acid] | 4.5
C=C(CN)CC(N)(CF)C(=O)O (centres unmarked) [D, 2-fluoromethyl-2,5-diamino-4-methylene-pentanoic acid] | 23

Reference: patent publication EP0072761B1, “Decarboxylase-inhibiting fluorinated alkane diamine derivatives” (MERRELL TORAUDE ET COMPAGNIE, priority 1981, dated 1983)
